In US20170175081A1, “Methods of Obtaining Islet Cells” (The University Court of the University of Aberdeen, priority 2014, published 2017):
No dose or concentration is given here for some results.

Test system: islet derived MSCs
Assay: Attachment and Ad-KLF4 redifferentiation on laminin isoform coatings
Assay type: cell-based, human
Conditions: glass coverslips pre-coated with laminin isoform

Row | Substance | time to full attachment of freshly-plated islet derived MSCs
1 | LN511: laminin isoform obtained from Biolamina AB | 8 h
2 | LN521: laminin isoform obtained from Biolamina AB | 8 h
